## Results from one PubChem assay

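Genome-wide siRNA knockdown in TC32 Ewing sarcoma cells, comparing luciferase light from an NR0B1-promoter reporter with a CMV-promoter reporter 48 hours after transfection. Each siRNA was applied at 20 nM. A z-score of the log NR0B1-over-CMV signal, less the median of siRNAs with the same seed; more negative means a stronger specific loss of the NR0B1 reporter.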

The strongest results of the screen are mostly left out here. Sequences are the guide (antisense) strand, without overhang.

{"sirna": "UAUCUUCUUAGGGUCACUU", "gene": "ZNF117", "seed-corrected z-score": "-0.6545"}
{"sirna": "AAAUCGCUGCUCAAUAUCC", "gene": "WDR27", "seed-corrected z-score": "-0.5214"}
{"sirna": "UACCUUUGAAUGAUCACCC", "gene": "PMFBP1", "seed-corrected z-score": "-0.181"}
{"sirna": "UAUGCUCUCGUAGUCGUUC", "gene": "PAG1", "seed-corrected z-score": "-0.6611"}
{"sirna": "UCUUUGAACCGCAGCCUCU", "gene": "PTP4A3", "seed-corrected z-score": "0.2991"}
{"sirna": "UUACCAUACAGACAUCUGG", "gene": "TAPT1", "seed-corrected z-score": "-0.4528"}
{"sirna": "AAAGUGUUUAGCUAGGACC", "gene": "UBL4B", "seed-corrected z-score": "1.101"}
{"sirna": "UAGCGUGUUAGUUUCUUGG", "gene": "PFKFB2", "seed-corrected z-score": "0.09304"}
{"sirna": "UUAAUGGUACAGGAUCACG", "gene": "EXOSC9", "seed-corrected z-score": "0.3963"}
{"sirna": "UAUCGACAGAGUUAUUGGG", "gene": "ATP11C", "seed-corrected z-score": "0.05059"}
{"sirna": "AAUGGUAUAUUUGUGGGUC", "gene": "SMAP1", "seed-corrected z-score": "0.5684"}
{"sirna": "AAUAUGUCCAUGUUGCUAG", "gene": "STS", "seed-corrected z-score": "-0.749"}
{"sirna": "AAUGCGCGCCUUCUCAUCC", "gene": "PPM1F", "seed-corrected z-score": "-0.05815"}
{"sirna": "UUGGAUUCCAGCAUCGUCG", "gene": "WDR93", "seed-corrected z-score": "-1.709"}
{"sirna": "AACCUUUGCCGAAUUAUGC", "gene": "ST8SIA1", "seed-corrected z-score": "0.3369"}
{"sirna": "UUGAGCUUAACCUCCUUGG", "gene": "RPL29P31", "seed-corrected z-score": "0.2175"}
{"sirna": "UAGGCGAUUUCGGAGAUGU", "gene": "SLC2A8", "seed-corrected z-score": "-0.4948"}
{"sirna": "AAACGAACCUGCACUGAGG", "gene": "LOC729652", "seed-corrected z-score": "0.8438"}
{"sirna": "AUAGGUAUUAAUACCAAUA", "gene": "C11orf97", "seed-corrected z-score": "0.7184"}
{"sirna": "UUCUGUCCCACGAUACUGU", "gene": "ELP6", "seed-corrected z-score": "-0.3889"}
{"sirna": "UUUGUAGAUGGUGCCCGCG", "gene": "KLHL36", "seed-corrected z-score": "0.0852"}
{"sirna": "UACCGGUUCAGGUAGGGCU", "gene": "TTC39A", "seed-corrected z-score": "0.006148"}
{"sirna": "UAACUGAUUAGAGAAGUCA", "gene": "SHFM1", "seed-corrected z-score": "1.419"}
{"sirna": "AAUCGGAUCAGAGCAUCAC", "gene": "EXOC3L1", "seed-corrected z-score": "0.4245"}
{"sirna": "AAAGAGACAGUGAGCAUGG", "gene": "THBS3", "seed-corrected z-score": "-1.784"}
{"sirna": "UUCUCGUGCAGCAAAAGAC", "gene": "RTN4RL1", "seed-corrected z-score": "0.3943"}
{"sirna": "UAUGGUCCUAAUUUUAAAG", "gene": "RAB8A", "seed-corrected z-score": "0.03337"}
{"sirna": "UGAGUUACACUAGACAGGG", "gene": "LRRC42", "seed-corrected z-score": "-0.7672"}
{"sirna": "UACUCCACAGUGUAGAUGG", "gene": "BORCS8", "seed-corrected z-score": "-0.1987"}
{"sirna": "UUUCGGAGAAGAAGGUUCG", "gene": "ZNF521", "seed-corrected z-score": "-1.345"}

Some entries from above, unchanged:

siRNA,gene,seed-corrected z-score
UGAGUUACACUAGACAGGG,LRRC42,-0.7672
UUUCGGAGAAGAAGGUUCG,ZNF521,-1.345

Source: PubChem BioAssay AID1159506 (NCATS, 2015).